Consider 25 compounds from PubChem BioAssay AID488840 (Broad Institute, 2010).

Amino acid sequences for entries named in this document (tags omitted). A change or cut given only in a name is not applied to a line headed by its entry.
UniProt O75164: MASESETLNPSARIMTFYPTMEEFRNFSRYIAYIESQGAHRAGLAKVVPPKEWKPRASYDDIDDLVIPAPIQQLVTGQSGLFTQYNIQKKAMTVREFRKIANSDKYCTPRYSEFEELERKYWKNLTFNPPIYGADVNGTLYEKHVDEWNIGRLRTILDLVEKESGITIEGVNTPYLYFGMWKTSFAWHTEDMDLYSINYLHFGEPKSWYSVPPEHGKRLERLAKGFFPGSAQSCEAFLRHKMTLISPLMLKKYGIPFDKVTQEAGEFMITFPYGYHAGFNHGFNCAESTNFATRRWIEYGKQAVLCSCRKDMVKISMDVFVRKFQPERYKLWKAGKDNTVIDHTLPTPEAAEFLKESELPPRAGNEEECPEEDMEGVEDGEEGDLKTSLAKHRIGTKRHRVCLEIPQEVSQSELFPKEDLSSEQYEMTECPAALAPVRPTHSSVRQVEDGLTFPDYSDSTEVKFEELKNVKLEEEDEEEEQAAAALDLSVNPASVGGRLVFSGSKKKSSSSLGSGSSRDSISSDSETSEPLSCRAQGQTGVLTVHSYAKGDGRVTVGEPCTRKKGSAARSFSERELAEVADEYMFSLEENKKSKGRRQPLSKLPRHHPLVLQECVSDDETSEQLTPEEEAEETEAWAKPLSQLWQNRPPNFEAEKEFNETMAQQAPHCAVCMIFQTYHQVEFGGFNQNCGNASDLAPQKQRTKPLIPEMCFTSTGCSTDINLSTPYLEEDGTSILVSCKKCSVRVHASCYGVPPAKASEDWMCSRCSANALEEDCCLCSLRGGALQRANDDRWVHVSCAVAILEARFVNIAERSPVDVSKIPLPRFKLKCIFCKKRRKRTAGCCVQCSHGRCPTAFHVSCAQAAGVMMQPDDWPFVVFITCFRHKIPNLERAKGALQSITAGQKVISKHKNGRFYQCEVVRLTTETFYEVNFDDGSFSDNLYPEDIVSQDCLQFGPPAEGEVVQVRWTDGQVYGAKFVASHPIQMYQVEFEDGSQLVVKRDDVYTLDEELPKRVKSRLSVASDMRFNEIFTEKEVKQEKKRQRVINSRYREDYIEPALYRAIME

The structures appear in SMILES notation. Screen size: about 1,400 compounds; about 45 (3%) were called active.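 The calls were made as follows: active = half-maximal dose of signal decrease from fit no higher than ten times the top valid tested dose; inconclusive = fit invalid, or curve flat with 30 to 70% inhibition; inactive = the rest.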 Some of the results follow. Results with a measured potency or affinity are listed apart.

The experiment deals with Lysine-specific demethylase 4A (Homo sapiens) (UniProt O75164). In words: inhibition of JMJD2A H3K9me3 demethylation – biochemical, DELFIA europium, cherry-picked samples, selectivity assay for GASC-1 inhibitor project, dose response (AID 488840).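 Also: europium signal reports the dimethyl H3K9 product detected by antibody so inhibitors lower it; 0% = median of neutral control wells and -100% = median of positive control wells.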 The note with it: GST-JMJD2A(1-420) H3K9me3 demethylation; at 6 µM (top of the series) unless noted.
With `COC(=O)C1=C(C(=O)OC)SC(=C2C(=S)C(C)(C)N(C(=O)C(C)C)c3ccccc32)S1`, the activity change, negative = inhibition was inactive: -2.33%. Consider `CCOC(=O)c1c(C)n(C)c2ccc(O)c(S(=O)(=O)c3ccccc3)c12`, for which the activity change, negative = inhibition was inactive: -4.8%. Next, `CCc1ccc(-c2cc(C)no2)cc1S(=O)(=O)NCCc1ccc(OC)c(OC)c1`: inactive: -4.55%. Next, `Cn1c(=O)c2c(ncn2CCN(CCO)Cc2ccccc2)n(C)c1=O`: inactive: -4.48%. For `Fc1ccccc1OCCCCn1cncn1` the value was inactive: -0.332%; for `CCCCC1CCC(C(=O)N(CC(C)C)c2c(N)n(Cc3ccccc3)c(=O)[nH]c2=O)CC1` (stereo not given), inactive: 3.81%; for `N#CC(C(=O)NCCc1ccccc1)c1nc2ccccc2nc1N1CCOCC1` (stereo not given), inactive: 2.1%. In the case of `CS(=O)(=O)NC1c2cccc3cccc(c23)C1Sc1nncn1/N=C/c1ccco1` (stereo not given), the activity change, negative = inhibition was inactive: -5.02%. Next, `Cc1ccc(CNC(=O)Cc2ccc(-c3ccccc3)cc2)cc1`: inactive: 6.79%; `Cn1c2ccccc2c(=O)c2ccc(NCCc3cccs3)cc21`: inactive: 3.45%; `CC1CCN(C(=O)CSc2nnc(CNC(=O)c3c(F)cccc3F)o2)CC1`: inactive: 8.76%. Next, `CCn1c(=O)c(C(=O)CN2c3ccccc3CC2C)c(N)n(Cc2ccccc2)c1=O` (stereo not given): inactive: 2.08%.

As to `COc1cccc(C(c2nnnn2CCc2ccccc2)N2CCN(c3ccccc3)CC2)c1OC` (stereo not given), the activity change, negative = inhibition is inactive: 1.91%. For `CCOC(=O)Cc1csc(NC(=O)COc2cccc(C)c2)n1` the value was inactive: -2.61%; for `Cc1cnn(C(=O)c2ccccc2Br)c1`, inactive: -7.68%.

As for `CS(=O)(=O)N(CCc1ccccc1)CC(=O)NCC1CCCO1` (stereo not given), the activity change, negative = inhibition was inactive: 3.91%. Next, `Cn1c(=O)n(C)c2cc(S(=O)(=O)N3CCOCC3)ccc21`: inactive: -4.32%. Next, `O=C(NCCCN1CCCC1=O)c1cc(-c2cccnc2)nc2ccc(Cl)cc12`: inactive: -1.88%; `Cc1ccccc1CN1C(=O)C(O)(CC(=O)c2ccncc2)c2ccccc21` (stereo not given): inactive: -4.55%. For `CCOC(=O)c1c(C)[nH]c(C(=O)CN2CCOCC2)c1C` the value was inactive: -0.147%. For the compound `CC(OC(=O)c1ccc([N+](=O)[O-])s1)C(=O)Nc1ncc(Cl)cc1Cl` (stereo not given), the activity change, negative = inhibition was inactive: 0.116%. For `O=C(Nc1ccc(Cl)cc1)N1CCN(c2ccccc2)CC1` the value was inactive: 6.39%; for `COc1ccc(CCN2C(=O)CC(NNC(=O)c3ccccc3Br)C2=O)cc1` (stereo not given), inactive: 5.48%. Next, `CNC[C@H]1Oc2c(NS(=O)(=O)c3cccs3)cccc2C(=O)N([C@H](C)CO)C[C@@H]1C`: inactive: -0.699%; `C=CCn1c(N2CCCCCC2)nc2c1c(=O)[nH]c(=O)n2C`: inactive: -2.83%.
